This passage reports binding results from paper PMC8699236.

By UniProt entry, the sequences of proteins in these tests, tags left out. Where a name states a change or a piece, a line headed by the entry shows the natural chain unless it says otherwise.
UniProt Q96RU7: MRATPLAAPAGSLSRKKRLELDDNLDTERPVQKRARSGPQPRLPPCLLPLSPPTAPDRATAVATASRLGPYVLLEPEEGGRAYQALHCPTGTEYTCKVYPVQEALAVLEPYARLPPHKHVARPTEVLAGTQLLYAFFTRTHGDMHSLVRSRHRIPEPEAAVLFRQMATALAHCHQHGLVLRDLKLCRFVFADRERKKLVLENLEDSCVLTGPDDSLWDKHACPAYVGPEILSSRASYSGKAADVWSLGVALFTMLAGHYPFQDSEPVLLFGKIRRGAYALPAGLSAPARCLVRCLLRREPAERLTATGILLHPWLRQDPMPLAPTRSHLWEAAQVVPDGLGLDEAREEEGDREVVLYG
UniProt Q09472: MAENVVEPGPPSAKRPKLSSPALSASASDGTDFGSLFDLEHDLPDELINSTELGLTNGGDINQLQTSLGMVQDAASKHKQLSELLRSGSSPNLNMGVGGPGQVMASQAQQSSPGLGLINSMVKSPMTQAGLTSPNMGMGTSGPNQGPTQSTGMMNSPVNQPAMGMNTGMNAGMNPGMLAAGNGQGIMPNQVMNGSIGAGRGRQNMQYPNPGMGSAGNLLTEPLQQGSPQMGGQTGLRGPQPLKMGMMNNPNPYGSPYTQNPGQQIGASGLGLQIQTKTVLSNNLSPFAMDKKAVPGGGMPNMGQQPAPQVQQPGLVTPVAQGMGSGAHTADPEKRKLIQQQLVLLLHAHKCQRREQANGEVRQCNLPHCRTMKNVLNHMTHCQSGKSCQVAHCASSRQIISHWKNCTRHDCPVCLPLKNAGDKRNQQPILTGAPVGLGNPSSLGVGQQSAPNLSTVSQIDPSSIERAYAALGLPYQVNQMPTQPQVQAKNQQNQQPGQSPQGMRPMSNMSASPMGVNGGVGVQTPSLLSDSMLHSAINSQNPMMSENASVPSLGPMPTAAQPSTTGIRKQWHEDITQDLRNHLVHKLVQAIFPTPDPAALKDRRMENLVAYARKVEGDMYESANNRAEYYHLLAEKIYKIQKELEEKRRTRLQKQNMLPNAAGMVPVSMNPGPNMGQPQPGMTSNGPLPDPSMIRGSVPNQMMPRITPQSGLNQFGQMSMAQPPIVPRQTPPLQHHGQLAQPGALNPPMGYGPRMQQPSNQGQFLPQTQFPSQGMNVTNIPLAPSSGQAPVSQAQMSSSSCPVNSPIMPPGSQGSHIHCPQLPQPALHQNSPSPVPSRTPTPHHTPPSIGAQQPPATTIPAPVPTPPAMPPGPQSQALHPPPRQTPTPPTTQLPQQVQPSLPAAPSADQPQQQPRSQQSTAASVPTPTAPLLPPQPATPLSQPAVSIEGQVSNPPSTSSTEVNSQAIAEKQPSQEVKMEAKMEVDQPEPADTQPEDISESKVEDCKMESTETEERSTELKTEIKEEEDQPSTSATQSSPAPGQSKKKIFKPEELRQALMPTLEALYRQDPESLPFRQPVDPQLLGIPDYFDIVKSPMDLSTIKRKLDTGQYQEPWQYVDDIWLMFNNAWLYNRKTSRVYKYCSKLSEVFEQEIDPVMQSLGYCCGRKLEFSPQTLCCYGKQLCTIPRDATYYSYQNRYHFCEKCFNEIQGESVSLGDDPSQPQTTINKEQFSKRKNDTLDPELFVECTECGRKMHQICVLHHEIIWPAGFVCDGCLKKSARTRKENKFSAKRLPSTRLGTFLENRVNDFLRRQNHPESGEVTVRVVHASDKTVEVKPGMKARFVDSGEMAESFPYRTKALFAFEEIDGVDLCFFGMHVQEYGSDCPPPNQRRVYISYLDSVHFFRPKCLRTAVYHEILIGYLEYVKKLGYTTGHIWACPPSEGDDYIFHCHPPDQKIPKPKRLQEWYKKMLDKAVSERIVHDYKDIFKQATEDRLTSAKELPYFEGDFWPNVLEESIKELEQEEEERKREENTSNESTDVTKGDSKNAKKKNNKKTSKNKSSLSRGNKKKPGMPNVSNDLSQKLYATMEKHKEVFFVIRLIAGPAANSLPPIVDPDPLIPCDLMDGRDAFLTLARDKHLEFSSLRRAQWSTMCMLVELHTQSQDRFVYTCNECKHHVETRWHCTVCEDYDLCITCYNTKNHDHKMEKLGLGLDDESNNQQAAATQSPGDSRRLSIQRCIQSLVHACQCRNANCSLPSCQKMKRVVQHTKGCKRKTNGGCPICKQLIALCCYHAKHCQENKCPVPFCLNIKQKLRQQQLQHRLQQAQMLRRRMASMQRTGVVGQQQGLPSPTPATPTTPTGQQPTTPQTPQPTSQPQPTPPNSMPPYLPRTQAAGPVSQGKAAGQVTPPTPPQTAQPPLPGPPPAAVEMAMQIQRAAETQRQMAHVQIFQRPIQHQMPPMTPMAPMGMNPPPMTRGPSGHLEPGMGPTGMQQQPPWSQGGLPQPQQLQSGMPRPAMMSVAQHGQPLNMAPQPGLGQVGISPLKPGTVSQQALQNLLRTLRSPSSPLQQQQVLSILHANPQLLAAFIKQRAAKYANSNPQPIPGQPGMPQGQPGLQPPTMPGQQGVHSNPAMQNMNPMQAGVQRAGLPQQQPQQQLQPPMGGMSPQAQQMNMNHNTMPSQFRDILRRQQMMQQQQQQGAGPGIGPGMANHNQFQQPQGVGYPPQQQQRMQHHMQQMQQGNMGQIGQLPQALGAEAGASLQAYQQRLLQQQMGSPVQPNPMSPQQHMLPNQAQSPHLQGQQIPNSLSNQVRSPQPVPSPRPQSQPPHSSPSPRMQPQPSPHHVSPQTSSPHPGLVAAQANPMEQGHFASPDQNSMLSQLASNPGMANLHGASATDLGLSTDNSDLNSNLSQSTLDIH
UniProt Q96T58: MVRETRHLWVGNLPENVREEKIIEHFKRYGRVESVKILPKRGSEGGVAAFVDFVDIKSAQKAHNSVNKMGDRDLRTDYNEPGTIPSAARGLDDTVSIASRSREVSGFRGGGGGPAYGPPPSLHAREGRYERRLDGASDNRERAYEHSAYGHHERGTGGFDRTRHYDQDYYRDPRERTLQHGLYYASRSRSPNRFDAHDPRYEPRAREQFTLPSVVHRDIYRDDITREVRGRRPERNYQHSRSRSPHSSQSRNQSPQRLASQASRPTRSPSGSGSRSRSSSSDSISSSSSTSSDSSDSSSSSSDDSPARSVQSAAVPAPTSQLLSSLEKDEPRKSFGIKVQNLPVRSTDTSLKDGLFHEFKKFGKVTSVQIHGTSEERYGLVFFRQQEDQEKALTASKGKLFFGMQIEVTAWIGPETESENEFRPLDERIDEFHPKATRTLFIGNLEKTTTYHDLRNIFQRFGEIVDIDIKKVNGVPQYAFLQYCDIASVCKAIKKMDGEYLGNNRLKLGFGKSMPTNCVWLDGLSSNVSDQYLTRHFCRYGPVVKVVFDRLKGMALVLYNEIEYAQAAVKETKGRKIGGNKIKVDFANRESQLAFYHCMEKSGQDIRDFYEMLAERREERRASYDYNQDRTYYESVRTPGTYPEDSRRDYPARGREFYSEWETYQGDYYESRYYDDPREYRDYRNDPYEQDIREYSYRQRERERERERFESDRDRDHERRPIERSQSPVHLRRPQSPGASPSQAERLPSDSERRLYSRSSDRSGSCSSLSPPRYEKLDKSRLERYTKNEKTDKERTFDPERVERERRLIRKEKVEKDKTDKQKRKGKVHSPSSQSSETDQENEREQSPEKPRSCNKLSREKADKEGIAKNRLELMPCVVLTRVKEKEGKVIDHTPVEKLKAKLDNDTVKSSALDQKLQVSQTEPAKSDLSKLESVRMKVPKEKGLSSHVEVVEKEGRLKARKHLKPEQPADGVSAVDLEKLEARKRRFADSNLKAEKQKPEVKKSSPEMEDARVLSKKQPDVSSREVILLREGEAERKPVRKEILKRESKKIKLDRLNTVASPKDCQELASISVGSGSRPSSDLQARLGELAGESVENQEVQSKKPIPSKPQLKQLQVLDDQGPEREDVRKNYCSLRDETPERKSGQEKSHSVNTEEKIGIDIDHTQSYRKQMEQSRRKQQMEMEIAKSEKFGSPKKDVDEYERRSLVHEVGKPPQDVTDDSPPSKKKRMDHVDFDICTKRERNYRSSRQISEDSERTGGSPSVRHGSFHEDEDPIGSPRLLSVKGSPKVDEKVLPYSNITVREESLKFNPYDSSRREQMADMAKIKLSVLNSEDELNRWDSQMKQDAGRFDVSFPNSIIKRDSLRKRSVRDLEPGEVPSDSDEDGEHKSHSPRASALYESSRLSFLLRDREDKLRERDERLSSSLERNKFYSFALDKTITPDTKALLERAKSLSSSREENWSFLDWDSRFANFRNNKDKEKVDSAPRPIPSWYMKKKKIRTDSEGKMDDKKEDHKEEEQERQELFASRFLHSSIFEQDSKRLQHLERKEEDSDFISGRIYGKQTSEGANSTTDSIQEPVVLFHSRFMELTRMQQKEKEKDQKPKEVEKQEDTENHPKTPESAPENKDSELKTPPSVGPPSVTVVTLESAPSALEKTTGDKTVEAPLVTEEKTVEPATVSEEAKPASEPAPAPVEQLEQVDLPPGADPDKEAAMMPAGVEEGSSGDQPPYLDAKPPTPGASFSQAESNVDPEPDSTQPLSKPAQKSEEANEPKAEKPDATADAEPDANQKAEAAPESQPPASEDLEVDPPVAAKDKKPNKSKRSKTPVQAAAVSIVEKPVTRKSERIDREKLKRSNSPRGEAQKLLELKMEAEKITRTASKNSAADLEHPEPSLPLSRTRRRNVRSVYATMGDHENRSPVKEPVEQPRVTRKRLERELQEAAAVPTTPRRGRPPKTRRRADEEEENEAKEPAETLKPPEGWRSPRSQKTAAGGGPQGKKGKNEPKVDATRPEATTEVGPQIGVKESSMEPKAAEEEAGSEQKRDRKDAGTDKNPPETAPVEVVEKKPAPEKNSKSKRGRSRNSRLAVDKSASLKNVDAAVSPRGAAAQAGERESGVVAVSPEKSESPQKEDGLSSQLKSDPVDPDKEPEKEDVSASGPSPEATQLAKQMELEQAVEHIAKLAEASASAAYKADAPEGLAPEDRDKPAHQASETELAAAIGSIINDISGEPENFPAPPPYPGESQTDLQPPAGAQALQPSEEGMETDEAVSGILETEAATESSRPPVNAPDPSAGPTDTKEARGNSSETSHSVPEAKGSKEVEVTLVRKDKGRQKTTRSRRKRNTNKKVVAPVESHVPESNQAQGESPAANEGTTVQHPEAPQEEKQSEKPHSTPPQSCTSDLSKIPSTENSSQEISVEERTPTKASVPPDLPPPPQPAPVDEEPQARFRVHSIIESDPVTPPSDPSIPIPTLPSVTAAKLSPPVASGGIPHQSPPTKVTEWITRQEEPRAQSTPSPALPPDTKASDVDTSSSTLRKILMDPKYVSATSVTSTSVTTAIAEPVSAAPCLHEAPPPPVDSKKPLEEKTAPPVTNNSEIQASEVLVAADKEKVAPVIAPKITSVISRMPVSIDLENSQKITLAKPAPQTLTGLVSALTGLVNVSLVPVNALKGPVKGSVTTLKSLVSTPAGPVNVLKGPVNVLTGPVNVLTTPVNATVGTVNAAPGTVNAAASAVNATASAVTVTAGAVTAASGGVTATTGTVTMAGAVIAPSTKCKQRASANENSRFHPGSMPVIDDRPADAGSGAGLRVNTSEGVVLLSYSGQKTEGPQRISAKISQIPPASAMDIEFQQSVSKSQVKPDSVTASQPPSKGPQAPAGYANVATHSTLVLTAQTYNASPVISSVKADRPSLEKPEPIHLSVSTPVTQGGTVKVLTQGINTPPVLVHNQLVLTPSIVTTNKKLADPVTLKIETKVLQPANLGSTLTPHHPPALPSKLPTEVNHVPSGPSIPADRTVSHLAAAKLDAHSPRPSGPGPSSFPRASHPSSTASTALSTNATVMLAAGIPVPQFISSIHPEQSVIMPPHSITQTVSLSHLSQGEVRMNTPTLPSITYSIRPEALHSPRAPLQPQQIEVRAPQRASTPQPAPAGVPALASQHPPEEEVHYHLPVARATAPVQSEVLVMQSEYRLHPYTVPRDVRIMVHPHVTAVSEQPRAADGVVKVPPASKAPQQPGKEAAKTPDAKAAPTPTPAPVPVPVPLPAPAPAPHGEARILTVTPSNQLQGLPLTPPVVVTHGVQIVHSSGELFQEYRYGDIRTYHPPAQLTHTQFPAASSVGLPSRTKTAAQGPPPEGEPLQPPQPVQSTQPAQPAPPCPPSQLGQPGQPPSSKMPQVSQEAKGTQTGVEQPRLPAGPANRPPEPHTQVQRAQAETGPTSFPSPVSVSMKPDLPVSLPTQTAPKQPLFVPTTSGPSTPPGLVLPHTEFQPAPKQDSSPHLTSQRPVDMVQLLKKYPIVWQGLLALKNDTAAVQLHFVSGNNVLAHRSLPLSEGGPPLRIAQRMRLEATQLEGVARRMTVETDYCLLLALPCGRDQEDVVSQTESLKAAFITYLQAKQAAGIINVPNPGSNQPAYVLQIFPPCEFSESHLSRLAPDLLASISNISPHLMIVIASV

No constants are given. Whether binding was seen depends on the method and setting. Binding seen in cells or lysates may run through a third protein. These calls come from enrichment with a bait or labelling near it, and not all partners need be listed. For some of these results: A no says only that the protein was not detected with the bait. For some of these results: Sequences can lack the tags named with a protein.

Test [1] deals with TRIB3-ΔC-terminal (human) (UniProt Q96RU7). Kind of test: affinity purification with mass spectrometry; GFP-fusion bait from lysate of transfected HEK293T cells on GFP-Trap beads, 2 h at 4 °C; lysis buffer 50 mM Tris pH 8.0, 1 mM EDTA, 0.1% NP40, 250 mM NaCl, 10% glycerol; on-bead digestion, LC-MS, label-free, against GFP control (or mutant against mutant or wild type).
The target in test [2] is TRIB3-ΔN-terminal (human) (UniProt Q96RU7). Described as above.
For test [3], the target named is T1, TRIB1-tGFP (human) (UniProt Q96RU8).
T1 sequence: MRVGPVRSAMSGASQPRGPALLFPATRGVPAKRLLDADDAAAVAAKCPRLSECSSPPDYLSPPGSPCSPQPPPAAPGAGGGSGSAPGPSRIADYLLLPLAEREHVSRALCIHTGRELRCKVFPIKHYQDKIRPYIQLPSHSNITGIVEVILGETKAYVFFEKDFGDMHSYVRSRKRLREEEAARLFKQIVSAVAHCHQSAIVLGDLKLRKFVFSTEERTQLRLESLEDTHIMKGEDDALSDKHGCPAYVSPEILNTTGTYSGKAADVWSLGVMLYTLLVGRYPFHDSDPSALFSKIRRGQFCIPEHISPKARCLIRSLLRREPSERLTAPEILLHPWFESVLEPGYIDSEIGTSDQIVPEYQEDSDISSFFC
The test is described as follows: affinity purification with mass spectrometry; tGFP-fusion bait from lysate of stable MCF7 cells induced with 2 μg/mL doxycycline for 24 h, on turboGFP-Trap beads; LC-MS, label-free, against tGFP control.

The target of test [4] is T2, TRIB1 GFP-fusion protein (human) (UniProt Q96RU8).
T2 sequence: T1 sequence
Kind of test: affinity purification with mass spectrometry; GFP-fusion bait from lysate of transfected HEK293T cells on GFP-Trap beads, 2 h at 4 °C; lysis buffer 50 mM Tris pH 8.0, 1 mM EDTA, 0.1% NP40, 250 mM NaCl, 10% glycerol; on-bead digestion, LC-MS, label-free, against GFP control (or mutant against mutant or wild type).

Test [5] has as its target T3, TRIB2 GFP-fusion protein (human) (UniProt Q92519).
T3 sequence: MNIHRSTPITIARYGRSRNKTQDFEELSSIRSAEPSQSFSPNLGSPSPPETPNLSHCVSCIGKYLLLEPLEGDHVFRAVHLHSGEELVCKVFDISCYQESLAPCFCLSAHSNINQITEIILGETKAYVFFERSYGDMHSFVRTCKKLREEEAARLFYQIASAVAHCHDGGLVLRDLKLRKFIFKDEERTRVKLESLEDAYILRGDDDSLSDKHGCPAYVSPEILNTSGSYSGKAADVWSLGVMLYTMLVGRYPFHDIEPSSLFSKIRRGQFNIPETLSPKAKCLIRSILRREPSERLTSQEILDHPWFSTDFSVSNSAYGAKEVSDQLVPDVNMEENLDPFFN
Described as above.

For “E1A Binding Protein P300 (from UniProt Q09472 1-2414)”, the binding result in test [1] was “binds”; in test [2] it was “no binding”.
For “SPEN Family Transcriptional Repressor (from UniProt Q96T58 1-3664)” the same measures were “binds” and “no binding”.

B1: Serine/Threonine Kinase 40 (protein, UniProt Q8N2I9 1-435)
chain: MKRRASDRGAGETSARAKALGSGISGNNAKRAGPFILGPRLGNSPVPSIVQCLARKDGTDDFYQLKILTLEERGDQGIESQEERQGKMLLHTEYSLLSLLHTQDGVVHHHGLFQDRTCEIVEDTESSRMVKKMKKRICLVLDCLCAHDFSDKTADLINLQHYVIKEKRLSERETVVIFYDVVRVVEALHQKNIVHRDLKLGNMVLNKRTHRITITNFCLGKHLVSEGDLLKDQRGSPAYISPDVLSGRPYRGKPSDMWALGVVLFTMLYGQFPFYDSIPQELFRKIKAAEYTIPEDGRVSENTVCLIRKLLVLDPQQRLAAADVLEALSAIIASWQSLSSLSGPLQVVPDIDDQMSNADSSQEAKVTEECSQYEFENYMRQQLLLAEEKSSIHDARSWVPKRQFGSAPPVRRLGHDAQPMTSLDTAILAQRYLRK
As for B1, the binding entry in test [3], in test [4], in test [5] and in test [2] was “binds” each time.

B2: Zinc Finger And BTB Domain 1 (protein, UniProt Q9Y2K1 1-713)
chain: MAKPSHSSYVLQQLNNQREWGFLCDCCIAIDDIYFQAHKAVLAACSSYFRMFFMNHQHSTAQLNLSNMKISAECFDLILQFMYLGKIMTAPSSFEQFKVAMNYLQLYNVPDCLEDIQDADCSSSKCSSSASSKQNSKMIFGVRMYEDTVARNGNEANRWCAEPSSTVNTPHNREADEESLQLGNFPEPLFDVCKKSSVSKLSTPKERVSRRFGRSFTCDSCGFGFSCEKLLDEHVLTCTNRHLYQNTRSYHRIVDIRDGKDSNIKAEFGEKDSSKTFSAQTDKYRGDTSQAADDSASTTGSRKSSTVESEIASEEKSRAAERKRIIIKMEPEDIPTDELKDFNIIKVTDKDCNESTDNDELEDEPEEPFYRYYVEEDVSIKKSGRKTLKPRMSVSADERGGLENMRPPNNSSPVQEDAENASCELCGLTITEEDLSSHYLAKHIENICACGKCGQILVKGRQLQEHAQRCGEPQDLTMNGLGNTEEKMDLEENPDEQSEIRDMFVEMLDDFRDNHYQINSIQKKQLFKHSACPFRCPNCGQRFETENLVVEHMSSCLDQDMFKSAIMEENERDHRRKHFCNLCGKGFYQRCHLREHYTVHTKEKQFVCQTCGKQFLRERQLRLHNDMHKGMARYVCSICDQGNFRKHDHVRHMISHLSAGETICQVCFQIFPNNEQLEQHMDVHLYTCGICGAKFNLRKDMRSHYNAKHLKRT
On to B2, for which the binding result in test [1] is recorded as “binds”; in test [2], “no binding”.
